According to article PMC7190567:
These are yes or no findings as the source states them, for the method shown. Binding seen in cells or lysates may run through a third protein. Binding can be weak; no strength is given.

Molecular target: T1, Caveolin-1 (wild type) (dog) (UniProt P33724)
T1 sequence: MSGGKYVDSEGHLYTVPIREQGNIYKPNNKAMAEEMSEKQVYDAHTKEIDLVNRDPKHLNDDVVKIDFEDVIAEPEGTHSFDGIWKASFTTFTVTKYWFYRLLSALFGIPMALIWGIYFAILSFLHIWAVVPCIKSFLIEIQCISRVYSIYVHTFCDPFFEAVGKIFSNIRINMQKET
Test: co-IP; polyclonal anti-CAV1 (2.5 ug) on protein A Dynabeads; 2 mg extract of B16F10 cells expressing E-cadherin (pBATEM2); PBS-Tween 0.1%, 2 h, room temperature; western blot

For E-cadherin (murine) (mouse), the binding was “binds”.
